No constants are given. Whether binding was seen depends on the method and setting. Binding seen in cells or lysates may run through a third protein. A result given as binding can be weak or reduced; the word gives no strength.
Target: iRhom2-ΔIRHD-HA (mouse (from the plasmid name pM6P.Blast-miR2)) (UniProt Q80WQ6)
Assay: co-IP; iRhom1/2 DKO MEFs stably expressing HA-tagged iRhom2 forms; endogenous partners; lysis in 1% Triton X-100, 200 mM NaCl, 50 mM Tris-HCl pH 7.4; anti-HA magnetic beads, 4 °C overnight; washes with 500 mM NaCl; immunoblot; in Fig. 6b after 18 h with control or BIRD-2 peptides (10 or 20 µM)

Sequences of proteins named here, by UniProt entry; tags and fusion partners are left off. A change or cut given only in a name is not applied to a line headed by its entry.
UniProt Q80WQ6: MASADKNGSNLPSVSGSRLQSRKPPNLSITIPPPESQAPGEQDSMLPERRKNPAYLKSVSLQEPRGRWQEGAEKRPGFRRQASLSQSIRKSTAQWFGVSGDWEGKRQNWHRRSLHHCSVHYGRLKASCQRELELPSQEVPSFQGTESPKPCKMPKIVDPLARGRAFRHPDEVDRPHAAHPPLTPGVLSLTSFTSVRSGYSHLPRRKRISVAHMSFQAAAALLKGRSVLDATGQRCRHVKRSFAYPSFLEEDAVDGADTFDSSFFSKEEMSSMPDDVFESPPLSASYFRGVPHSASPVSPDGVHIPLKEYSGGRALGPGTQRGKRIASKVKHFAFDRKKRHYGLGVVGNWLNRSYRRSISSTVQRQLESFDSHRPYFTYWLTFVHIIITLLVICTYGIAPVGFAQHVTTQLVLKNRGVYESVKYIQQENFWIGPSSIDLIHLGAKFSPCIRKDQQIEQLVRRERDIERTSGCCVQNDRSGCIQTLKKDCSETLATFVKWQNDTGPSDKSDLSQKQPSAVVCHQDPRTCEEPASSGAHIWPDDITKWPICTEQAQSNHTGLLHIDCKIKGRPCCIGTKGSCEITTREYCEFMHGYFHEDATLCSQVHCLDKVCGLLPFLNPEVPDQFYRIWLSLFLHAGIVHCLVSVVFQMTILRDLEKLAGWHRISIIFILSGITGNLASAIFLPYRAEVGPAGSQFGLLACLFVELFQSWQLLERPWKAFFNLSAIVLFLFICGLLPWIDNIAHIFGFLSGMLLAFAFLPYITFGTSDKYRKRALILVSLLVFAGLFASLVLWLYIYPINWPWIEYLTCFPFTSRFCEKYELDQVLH
UniProt P11881: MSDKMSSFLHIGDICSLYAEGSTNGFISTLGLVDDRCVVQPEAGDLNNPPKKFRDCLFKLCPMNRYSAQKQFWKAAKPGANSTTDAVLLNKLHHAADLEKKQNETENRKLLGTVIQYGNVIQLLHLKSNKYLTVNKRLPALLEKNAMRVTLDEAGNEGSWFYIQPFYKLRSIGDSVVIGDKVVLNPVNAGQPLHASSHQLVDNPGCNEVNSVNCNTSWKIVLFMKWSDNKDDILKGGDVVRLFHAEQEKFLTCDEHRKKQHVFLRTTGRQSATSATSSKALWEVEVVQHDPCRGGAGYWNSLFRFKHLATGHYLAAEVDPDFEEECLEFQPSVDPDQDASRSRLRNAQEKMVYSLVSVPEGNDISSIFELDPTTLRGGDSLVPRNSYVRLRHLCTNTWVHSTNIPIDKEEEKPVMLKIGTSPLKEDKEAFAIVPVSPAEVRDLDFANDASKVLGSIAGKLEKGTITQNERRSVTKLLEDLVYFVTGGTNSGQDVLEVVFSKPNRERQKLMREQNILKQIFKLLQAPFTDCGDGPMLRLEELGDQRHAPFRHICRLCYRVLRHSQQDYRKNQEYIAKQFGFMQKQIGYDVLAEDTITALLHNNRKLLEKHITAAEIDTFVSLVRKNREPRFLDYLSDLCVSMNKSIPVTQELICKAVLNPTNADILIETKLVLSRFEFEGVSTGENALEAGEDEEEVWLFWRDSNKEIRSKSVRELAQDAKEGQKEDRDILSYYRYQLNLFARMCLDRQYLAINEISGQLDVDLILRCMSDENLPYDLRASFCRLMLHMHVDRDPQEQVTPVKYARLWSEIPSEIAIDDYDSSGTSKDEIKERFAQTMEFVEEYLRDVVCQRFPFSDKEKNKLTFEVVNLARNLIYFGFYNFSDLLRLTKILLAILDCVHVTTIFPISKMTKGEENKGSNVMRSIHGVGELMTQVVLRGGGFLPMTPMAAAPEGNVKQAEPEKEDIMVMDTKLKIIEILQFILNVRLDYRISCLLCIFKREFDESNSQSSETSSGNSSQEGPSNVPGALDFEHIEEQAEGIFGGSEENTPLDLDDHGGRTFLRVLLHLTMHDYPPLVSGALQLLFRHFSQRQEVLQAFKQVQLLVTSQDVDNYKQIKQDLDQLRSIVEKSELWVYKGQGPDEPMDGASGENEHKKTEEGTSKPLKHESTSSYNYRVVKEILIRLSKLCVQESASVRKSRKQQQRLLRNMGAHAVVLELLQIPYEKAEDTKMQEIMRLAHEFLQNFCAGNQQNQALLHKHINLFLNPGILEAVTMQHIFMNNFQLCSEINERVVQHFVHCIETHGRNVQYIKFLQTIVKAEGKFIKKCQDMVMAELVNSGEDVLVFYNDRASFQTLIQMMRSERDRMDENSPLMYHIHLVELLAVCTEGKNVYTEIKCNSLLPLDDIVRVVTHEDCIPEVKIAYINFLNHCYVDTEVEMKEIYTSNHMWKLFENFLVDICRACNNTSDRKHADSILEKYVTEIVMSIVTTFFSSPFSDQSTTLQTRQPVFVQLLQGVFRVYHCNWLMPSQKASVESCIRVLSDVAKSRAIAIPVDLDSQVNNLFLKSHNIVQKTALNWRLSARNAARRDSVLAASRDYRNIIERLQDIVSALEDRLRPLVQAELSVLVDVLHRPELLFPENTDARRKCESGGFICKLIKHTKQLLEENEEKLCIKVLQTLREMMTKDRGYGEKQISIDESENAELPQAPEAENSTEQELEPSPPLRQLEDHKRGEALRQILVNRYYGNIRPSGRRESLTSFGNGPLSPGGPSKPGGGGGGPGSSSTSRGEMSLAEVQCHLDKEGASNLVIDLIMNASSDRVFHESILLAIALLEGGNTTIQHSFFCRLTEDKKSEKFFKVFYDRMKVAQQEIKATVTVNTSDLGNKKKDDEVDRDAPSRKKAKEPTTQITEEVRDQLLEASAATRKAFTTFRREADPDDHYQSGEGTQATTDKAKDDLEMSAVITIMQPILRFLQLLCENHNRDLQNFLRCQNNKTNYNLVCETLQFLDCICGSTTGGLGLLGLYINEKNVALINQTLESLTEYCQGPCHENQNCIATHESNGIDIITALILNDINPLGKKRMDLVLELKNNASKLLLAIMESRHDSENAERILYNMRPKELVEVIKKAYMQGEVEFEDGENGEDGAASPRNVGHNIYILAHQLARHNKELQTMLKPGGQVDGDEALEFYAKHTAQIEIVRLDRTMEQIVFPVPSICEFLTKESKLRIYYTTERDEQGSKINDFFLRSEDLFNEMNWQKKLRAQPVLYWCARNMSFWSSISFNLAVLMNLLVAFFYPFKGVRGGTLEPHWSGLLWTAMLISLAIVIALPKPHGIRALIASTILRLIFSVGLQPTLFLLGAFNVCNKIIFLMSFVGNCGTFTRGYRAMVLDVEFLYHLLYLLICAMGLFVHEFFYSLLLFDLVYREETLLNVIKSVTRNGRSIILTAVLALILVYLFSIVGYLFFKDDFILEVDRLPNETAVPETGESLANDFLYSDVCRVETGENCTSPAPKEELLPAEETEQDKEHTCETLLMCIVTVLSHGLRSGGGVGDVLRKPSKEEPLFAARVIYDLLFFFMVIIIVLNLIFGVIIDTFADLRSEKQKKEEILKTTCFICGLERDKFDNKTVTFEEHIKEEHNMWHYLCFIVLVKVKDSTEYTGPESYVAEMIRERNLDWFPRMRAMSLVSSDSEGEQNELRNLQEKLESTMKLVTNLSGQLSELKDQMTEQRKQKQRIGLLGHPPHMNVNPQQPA

binding: binds
Substance: endogenous IP3R1 of MEFs (from UniProt P11881 1-2749) (receptor)

Source: article PMC8913617
